PMC10826163
These are yes or no findings as the source states them, for the method shown. Binding seen in cells or lysates may run through a third protein. These calls come from enrichment with a bait or labelling near it, and not all partners need be listed. Where a sequence is shown, tags or fusion partners need not be part of it.

B1: Thy-1 membrane glycoprotein (protein, UniProt P01830 20-130)
chain: QRVISLTACLVNQNLRLDCRHENNTNLPIQHEFSLTREKKKHVLSGTLGVPEHTYRSRVNLFSDRFIKVLTLANFTTKDEGDYMCELRVSGQNPTSSNKTINVIRDKLVKC
B2: Coronin (protein, UniProt F1LMV9 1-480)
chain: MTVTKMSWRPQYRSSKFRNVYGKVANREHCFDGIPITKNVHDNHFCAVNARFLAIVTESAGGGSFLVIPLEQTGRIEPNYPKVCGHQGNVLDIKWNPFIDNIIASCSEDTSVRIWEIPEGGLKRNMTEALLELHGHSRRVGLVEWHPTTNNILFSAGYDYKVLIWNLDIGEPVKMIDCHTDVILCMSFNTDGSLLTTTCKDKKLRVIEPRSGRVLQEANCKNHRVNRVVFLGNMKRLLTTGVSRWNTRQIALWDQEDLSMPMIEEEIDGLSGLLFPFYDADTHMLYLAGKGDGNIRYYEISTEKPYLSYLMEFRSPAPQKGLGVMPKHGLDVSACEVFRFYKLVTLKGLIEPISMIVPRRSDSYQEDIYPMTPGTEPALTPDEWLGGVNRDPVLMSLKEGYKKSSKVVFKAPIREKKSVVVNGIDLLENVPPRTENELLRMFFRQQDEIRRLKEELAQKDIRLRQLQLELKNLRNNPKNC
B3: Drebrin (protein, UniProt Q07266 1-707)
chain: MAGVSFSGHRLELLAAYEEVIREESAADWALYTYEDGSDDLKLAASGEGGLQELSGHFENQKVMYGFCSVKDSQAALPKYVLINWVGEDVPDARKCACASHVAKVAEFFQGVDVIVNASSVEDIDAGAIGQRLSNGLARLSSPVLHRLRLREDENAEPVGTTYQKTDAAVEMKRINREQFWEQAKKEEELRKEEERKKALDARLRFEQERMEQERQEQEERERRYREREQQIEEHRRKQQSLEAEEAKRRLKDQSIFGDQRDEEEESQMKKSESEVEEAAAIIAQRPDNPREFFRQQERVASASGGSCDAPSPFNHRPGRPYCPFIKASDSGPSSSSSSSSSPPRTPFPYITCHRTPNLSSSLPCSHLDSHRRMAPTPIPTRSPSDSSTASTPITEQIERALDEVTSSQPPPPPPPPPPAQEAQESAPRLDGEEVCKEAKVAAAPQVWAGCAEEPPRAQEPPLLQSSPTEDLMCTESPEQAVLAASPEPDASVTSVADAHAADTIETTTATTATTIADNVTPAAASLIDLWPGNGEEASTPQAEPRVPTPPSGAEASLAEVPLLNEAAQEPLPPVGEGCANLLNFDELPEPPATFCDPEEEAEGEPLAASQVLTMPSALEEVDQVLEQELEPEPHLLTNGETTQKEGTQQASEGYFSQSQEEEFAQSEEPCAKAPPPVFYNKPPEIDITCWDADPVPEEEEGFEGGD
B4: Junction plakoglobin (protein, UniProt Q6P0K8 1-745)
chain: MEVMNLIEQPIKVTEWQQTYTYDSGIHSGVNTCVPSVSSKGLLDEDDTCGRQYTLKKTTTYTQGVPQSQGDLEYQMSTTARAKRVREAMCPGVSGEDSSLLLATQVEGQTTNLQRLAEPSQLLKSAIVHLINYQDDAELATRALPELTKLLNDEDPVVVTKAAMIVNQLSKKEASRRALMGSPQLVAAVVRTMQNTSDLDTARCTTSILHNLSHHREGLLAIFKSGGIPALVRMLSSPVESVLFYAITTLHNLLLYQEGAKMAVRLADGLQKMVPLLNKNNPKFLAITTDCLQLLAYGNQESKLIILANGGPQGLVQIMRNYSYEKLLWTTSRVLKVLSVCPSNKPAIVEAGGMQALGKHLTSNSPRLVQNCLWTLRNLSDVATKQEGLENVLKILVNQLSVDDVNVLTCATGTLSNLTCNNSKNKTLVTQNSGVEALIHAILRAGDKDDITEPAVCALRHLTSRHPEAEMAQNSVRLNYGIPAIVKLLNQPNQWPLVKATIGLIRNLALCPANHAPLQEAAVIPRLVQLLVKAHQDAQRHVAAGTQQPYTDGVRMEEIVEGCTGALHILARDPMNRMEIFRLNTIPLFVQLLYSSVENIQRVAAGVLCELAQDKEAADAIDAEGASAPLMELLHSRNEGTATYAAAVLFRISEDKNPDYRKRVSVELTNSLFKHDPAAWEAAQSMIPINEPYADDMDATYRPMYSSDVPLDPLDMHMDMDGDYPMDTYSDGLRPPYPAADHMLA
B5: EF-hand domain-containing protein D2 (protein, UniProt Q4FZY0 1-239)
chain: MATDELASKLSRRLQMEDEGGEATEQPGLNGAAAAAAEAPDETAQALGSADDELSAKLLRRADLNQGIGEPQSPSRRVFNPYTEFKEFSRKQIKDMEKMFKQYDAGKDGFIDLMELKLMMEKLGAPQTHLGLKSMIQEVDEDFDSKLSFREFLLIFRKAAAGELQEDSGLHVLARLSEIDVSTEGVKGAKNFFEAKVQAINVSSRFEEEIKAEQEERKKQAEEVKQRKAAFKELQSTFK
B6: Voltage-dependent anion-selective channel protein 2 (protein, UniProt P81155 1-295)
chain: MAECCVPVCQRPICIPPPYADLGKAARDIFNKGFGFGLVKLDVKTKSCSGVEFSTSGSSNTDTGKVSGTLETKYKWCEYGLTFTEKWNTDNTLGTEIAIEDQICQGLKLTFDTTFSPNTGKKSGKIKSAYKRECINLGCDVDFDFAGPAIHGSAVFGYEGWLAGYQMTFDSAKSKLTRSNFAVGYRTGDFQLHTNVNNGTEFGGSIYQKVCEDFDTSVNLAWTSGTNCTRFGIAAKYQLDPTASISAKVNNSSLIGVGYTQTLRPGVKLTLSALVDGKSFNAGGHKLGLALELEA
B7: mRNA-decapping enzyme 1A (protein, UniProt D4AE80 1-601)
chain: MALSCSPVRPRPRGSAWRSKMELLSRAEQEMSLAALKQHDPYITSIADLTGQVALYTFCPKANQWEKTDIEGTLFVYRRSASPYHGFTIVNRLNMHNLVEPVNKDLEFQLHEPFLLYRNASLSIYSIWFYDKNDCHRIAKLMADVVEEEARRAQQAARDKQSPSQANGCSDQRPIDILEMLSRAKDEYERNQMGGSNISSPGLQPSSQLSNLGSTETLEETPSGSQDKSAPSGHKHLTVEELFGTSLPKEQPAPMGLESEDTDKLLGDAPQKEPSSFLPFPFEQSGGAPQAENLGVHSVTHHTVQPEVSAPVLITPASIAQSGDKHPPSYTLPLSPVLSPTLPAEAPTTQVPHLPRNSTMMQAVRTTPRQKSPLLNQPVPELSHSSLIASQSPFRAPVSLANTAGTAIPSSDLLQKLRLTPQHDQIQAQPLGKGAMAPNFSSAAGQLATPESFIEPSSKTAAARAAVAASLSNMVLAPTLQSMQQNQDPEVFAQPKVLPSAIPIAGPPLVTATTTAVSSVLLSPSVFQQTVPRSADLERKASCPSPLTIGAENQRKPSIILSRSQLQDTLIHLIKNDSGFLSTLHEVYLQVLTKSKDNHSL
B8: Alpha-internexin (protein, UniProt P23565 1-505)
chain: MSFGSEHYLCSASSYRKVFGDGSRLSARLSGPGASGSFRSQSLSRSNVASTAACSSASSLGLGLAYRRLPASDGLDLSQAAARTNEYKIIRTNEKEQLQGLNDRFAVFIEKVHQLETQNRALEAELAALRQRHAEPSRVGELFQRELRELRAQLEEASSARAQALLERDGLAEEVQRLRARCEEESRGREGAERALKAQQRDVDGATLARLDLEKKVESLLDELAFVRQVHDEEVAELLATLQASSQAAAEVDVAVAKPDLTSALREIRAQYESLAAKNLQSAEEWYKSKFANLNEQAARSTEAIRASREEIHEYRRQLQARTIEIEGLRGANESLERQILELEERHSAEVAGYQDSIGQLESDLRNTKSEMARHLREYQDLLNVKMALDIEIAAYRKLLEGEETRFSTSGLSISGLNPLPNPSYLLPPRILSSTTSKVSSAGLSLKKEEEEEEEEEEGASKEVTKKTSKVGESFEETLEETVVSTKKTEKSTIEEITTSSSQKM
B9: Ras-related protein Rab-3A (protein, UniProt P63012 1-220)
chain: MASATDSRYGQKESSDQNFDYMFKILIIGNSSVGKTSFLFRYADDSFTPAFVSTVGIDFKVKTIYRNDKRIKLQIWDTAGQERYRTITTAYYRGAMGFILMYDITNEESFNAVQDWSTQIKTYSWDNAQVLLVGNKCDMEDERVVSSERGRQLADHLGFEFFEASAKDNINVKQTFERLVDVICEKMSESLDTADPAVTGAKQGPQLTDQQAPPHQDCAC

Target: Traf2-and NcK-interacting kinase (rat (endogenous in rat hippocampus))
Experiment: affinity purification with mass spectrometry; anti-TNIK immunoprecipitate from rat hippocampal lysate (control: normal mouse IgG), SDS-PAGE, silver stain, bands seen only in the TNIK Co-IP cut out, trypsin digest, LC-MS/MS, Mascot against UniProt Rattus norvegicus, score >=20

binding | Binder
binds | B1
binds | B2
binds | B3
binds | B4
binds | B5
binds | B6
binds | B7
binds | B8
binds | B9
